Data published in article doi:10.1101/2020.11.17.386581.
No constants are given. Whether binding was seen depends on the method and setting. Some results given as binding are weak or reduced against the parent protein; the word gives no strength.

Amino acid sequences for entries named in this document (tags omitted). Residues count along the entry.
UniProt Q91ZX7, residues 20-4545: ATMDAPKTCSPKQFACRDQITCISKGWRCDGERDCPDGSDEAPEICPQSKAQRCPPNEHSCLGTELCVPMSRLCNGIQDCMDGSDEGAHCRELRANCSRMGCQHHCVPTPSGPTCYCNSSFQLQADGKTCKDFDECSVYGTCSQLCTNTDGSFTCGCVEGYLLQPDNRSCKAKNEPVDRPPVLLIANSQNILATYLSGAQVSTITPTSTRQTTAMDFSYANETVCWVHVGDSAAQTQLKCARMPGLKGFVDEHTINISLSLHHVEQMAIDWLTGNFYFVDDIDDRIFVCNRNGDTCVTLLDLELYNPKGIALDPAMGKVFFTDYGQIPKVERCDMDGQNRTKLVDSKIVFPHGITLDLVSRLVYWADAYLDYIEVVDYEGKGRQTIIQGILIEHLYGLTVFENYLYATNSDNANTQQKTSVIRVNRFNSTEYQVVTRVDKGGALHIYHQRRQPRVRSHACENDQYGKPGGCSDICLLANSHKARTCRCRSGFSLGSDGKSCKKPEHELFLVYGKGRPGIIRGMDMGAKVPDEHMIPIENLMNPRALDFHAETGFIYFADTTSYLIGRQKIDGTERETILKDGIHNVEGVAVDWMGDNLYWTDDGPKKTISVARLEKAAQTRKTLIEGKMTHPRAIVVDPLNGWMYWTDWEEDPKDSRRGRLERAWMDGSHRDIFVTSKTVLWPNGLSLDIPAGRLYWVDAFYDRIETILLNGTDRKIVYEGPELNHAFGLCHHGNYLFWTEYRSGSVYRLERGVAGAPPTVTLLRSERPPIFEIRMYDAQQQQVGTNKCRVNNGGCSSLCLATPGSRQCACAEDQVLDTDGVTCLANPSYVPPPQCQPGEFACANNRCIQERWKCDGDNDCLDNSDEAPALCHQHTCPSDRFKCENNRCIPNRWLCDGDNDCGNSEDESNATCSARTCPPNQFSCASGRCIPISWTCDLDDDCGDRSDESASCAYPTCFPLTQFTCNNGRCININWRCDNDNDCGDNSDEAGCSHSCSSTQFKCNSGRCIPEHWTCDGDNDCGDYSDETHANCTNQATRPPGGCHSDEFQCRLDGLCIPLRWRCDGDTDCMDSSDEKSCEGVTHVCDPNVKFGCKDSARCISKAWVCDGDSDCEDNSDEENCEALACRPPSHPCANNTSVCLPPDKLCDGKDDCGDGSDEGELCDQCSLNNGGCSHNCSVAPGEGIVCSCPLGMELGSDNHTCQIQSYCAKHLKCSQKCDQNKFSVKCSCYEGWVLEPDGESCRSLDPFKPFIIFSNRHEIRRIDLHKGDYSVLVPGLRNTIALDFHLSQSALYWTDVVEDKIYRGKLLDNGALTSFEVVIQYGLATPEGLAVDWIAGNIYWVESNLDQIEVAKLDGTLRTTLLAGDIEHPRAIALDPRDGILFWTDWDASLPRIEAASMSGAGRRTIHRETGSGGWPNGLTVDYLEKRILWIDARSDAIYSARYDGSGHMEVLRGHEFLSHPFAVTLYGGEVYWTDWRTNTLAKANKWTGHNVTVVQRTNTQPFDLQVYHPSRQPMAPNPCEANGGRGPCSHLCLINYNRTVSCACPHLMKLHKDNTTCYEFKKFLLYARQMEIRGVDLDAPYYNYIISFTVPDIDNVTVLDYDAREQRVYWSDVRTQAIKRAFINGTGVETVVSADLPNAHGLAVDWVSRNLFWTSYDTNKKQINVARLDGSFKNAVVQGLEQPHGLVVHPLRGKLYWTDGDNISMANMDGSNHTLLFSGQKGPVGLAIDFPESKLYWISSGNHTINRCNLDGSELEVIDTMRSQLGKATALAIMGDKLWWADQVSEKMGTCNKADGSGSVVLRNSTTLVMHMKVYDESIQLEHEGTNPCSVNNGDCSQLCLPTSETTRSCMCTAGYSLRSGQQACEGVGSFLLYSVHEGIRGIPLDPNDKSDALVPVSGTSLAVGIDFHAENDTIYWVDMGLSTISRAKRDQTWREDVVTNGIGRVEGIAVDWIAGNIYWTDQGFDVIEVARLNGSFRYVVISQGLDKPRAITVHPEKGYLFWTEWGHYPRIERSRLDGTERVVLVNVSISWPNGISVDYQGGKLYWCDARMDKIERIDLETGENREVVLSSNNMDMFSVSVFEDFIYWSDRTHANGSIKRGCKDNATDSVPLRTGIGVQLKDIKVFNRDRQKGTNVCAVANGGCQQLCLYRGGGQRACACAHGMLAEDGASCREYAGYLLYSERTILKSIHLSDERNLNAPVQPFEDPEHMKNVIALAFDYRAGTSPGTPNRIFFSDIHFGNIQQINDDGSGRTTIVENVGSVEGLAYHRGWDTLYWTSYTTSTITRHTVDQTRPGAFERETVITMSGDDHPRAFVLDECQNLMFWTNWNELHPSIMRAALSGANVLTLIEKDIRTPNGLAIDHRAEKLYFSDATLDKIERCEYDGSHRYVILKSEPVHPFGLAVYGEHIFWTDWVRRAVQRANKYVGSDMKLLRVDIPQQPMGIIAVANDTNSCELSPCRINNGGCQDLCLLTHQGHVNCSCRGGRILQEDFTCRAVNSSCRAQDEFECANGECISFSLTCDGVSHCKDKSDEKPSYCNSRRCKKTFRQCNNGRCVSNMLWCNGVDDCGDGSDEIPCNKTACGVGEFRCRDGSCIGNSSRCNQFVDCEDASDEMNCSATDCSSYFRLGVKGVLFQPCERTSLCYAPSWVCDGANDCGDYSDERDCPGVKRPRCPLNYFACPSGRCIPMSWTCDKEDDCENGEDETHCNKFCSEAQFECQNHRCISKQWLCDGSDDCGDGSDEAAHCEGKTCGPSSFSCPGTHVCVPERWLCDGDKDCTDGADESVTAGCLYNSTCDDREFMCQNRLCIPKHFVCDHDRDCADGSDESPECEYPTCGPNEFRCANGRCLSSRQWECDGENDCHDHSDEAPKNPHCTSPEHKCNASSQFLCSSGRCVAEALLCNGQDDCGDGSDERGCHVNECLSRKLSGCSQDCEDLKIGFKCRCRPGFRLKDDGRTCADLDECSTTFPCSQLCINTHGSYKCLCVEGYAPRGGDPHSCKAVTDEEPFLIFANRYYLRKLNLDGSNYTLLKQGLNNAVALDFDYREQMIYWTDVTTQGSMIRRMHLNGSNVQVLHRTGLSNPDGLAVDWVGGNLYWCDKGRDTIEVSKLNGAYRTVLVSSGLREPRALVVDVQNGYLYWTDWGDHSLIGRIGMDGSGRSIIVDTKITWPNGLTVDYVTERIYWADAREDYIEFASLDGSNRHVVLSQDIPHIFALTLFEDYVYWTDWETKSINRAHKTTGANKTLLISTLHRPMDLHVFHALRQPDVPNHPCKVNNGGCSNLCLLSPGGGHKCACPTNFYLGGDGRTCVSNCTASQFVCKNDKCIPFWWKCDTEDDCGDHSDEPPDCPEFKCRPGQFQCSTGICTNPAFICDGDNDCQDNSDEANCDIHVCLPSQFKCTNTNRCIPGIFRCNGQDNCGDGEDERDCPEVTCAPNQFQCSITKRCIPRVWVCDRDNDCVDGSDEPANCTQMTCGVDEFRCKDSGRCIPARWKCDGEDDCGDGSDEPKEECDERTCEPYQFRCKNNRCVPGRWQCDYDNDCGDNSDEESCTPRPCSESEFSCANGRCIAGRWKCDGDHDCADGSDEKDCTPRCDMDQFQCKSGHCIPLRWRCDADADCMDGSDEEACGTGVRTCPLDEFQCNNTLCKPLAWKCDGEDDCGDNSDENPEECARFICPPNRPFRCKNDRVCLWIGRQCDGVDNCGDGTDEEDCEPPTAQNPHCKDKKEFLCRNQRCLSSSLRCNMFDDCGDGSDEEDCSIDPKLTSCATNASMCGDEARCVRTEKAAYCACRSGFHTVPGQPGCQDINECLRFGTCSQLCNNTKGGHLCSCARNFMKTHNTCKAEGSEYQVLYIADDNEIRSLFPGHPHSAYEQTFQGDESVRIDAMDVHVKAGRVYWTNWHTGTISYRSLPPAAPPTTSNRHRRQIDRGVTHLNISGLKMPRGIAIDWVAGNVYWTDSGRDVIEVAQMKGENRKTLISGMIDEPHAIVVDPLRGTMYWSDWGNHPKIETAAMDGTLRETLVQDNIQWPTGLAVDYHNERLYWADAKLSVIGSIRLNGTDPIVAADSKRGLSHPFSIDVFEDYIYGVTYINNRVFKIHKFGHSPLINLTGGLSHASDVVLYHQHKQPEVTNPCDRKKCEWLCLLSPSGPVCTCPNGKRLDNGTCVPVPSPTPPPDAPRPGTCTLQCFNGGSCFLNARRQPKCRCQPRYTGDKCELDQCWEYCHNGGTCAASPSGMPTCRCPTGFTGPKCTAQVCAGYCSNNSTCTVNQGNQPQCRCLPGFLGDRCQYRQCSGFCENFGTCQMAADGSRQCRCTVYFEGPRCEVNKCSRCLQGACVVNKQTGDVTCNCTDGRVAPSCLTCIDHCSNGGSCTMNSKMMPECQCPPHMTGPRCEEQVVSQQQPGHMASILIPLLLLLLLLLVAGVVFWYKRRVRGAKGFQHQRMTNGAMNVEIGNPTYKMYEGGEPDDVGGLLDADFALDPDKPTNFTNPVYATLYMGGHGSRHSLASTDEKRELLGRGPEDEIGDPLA
UniProt P30533, residues 35-357: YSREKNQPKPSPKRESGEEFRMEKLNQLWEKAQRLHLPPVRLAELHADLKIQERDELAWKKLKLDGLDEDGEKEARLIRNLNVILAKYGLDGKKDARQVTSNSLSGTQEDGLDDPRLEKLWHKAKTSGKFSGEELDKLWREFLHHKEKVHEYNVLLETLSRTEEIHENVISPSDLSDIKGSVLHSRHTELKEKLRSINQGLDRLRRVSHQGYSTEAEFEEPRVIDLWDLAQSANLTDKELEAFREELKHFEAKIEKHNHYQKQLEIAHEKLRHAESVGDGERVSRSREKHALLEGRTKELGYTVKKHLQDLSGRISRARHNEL

Tests used:
[1] = biological target: Full-length human LRP1 purified from placenta (human) (UniProt Q07954); test: SPR
[2] = biological target: LRP1 of mouse embryonic fibroblasts (MEF) (mouse (endogenous in MEF)) (UniProt Q91ZX7); test: radioligand binding

Receptor associated protein (RAP) (from UniProt P30533 35-357)
binding [1]: binds | binding [2]: binds
